Measured values: the supplement of paper PMC6411743
± gives the standard deviation of the averaged measurements. The list shows a part of the results.

Sequences of proteins named here, by UniProt entry; tags and fusion partners are left off. A change or cut given only in a name is not applied to a line headed by its entry.
UniProt O43707, whole entry: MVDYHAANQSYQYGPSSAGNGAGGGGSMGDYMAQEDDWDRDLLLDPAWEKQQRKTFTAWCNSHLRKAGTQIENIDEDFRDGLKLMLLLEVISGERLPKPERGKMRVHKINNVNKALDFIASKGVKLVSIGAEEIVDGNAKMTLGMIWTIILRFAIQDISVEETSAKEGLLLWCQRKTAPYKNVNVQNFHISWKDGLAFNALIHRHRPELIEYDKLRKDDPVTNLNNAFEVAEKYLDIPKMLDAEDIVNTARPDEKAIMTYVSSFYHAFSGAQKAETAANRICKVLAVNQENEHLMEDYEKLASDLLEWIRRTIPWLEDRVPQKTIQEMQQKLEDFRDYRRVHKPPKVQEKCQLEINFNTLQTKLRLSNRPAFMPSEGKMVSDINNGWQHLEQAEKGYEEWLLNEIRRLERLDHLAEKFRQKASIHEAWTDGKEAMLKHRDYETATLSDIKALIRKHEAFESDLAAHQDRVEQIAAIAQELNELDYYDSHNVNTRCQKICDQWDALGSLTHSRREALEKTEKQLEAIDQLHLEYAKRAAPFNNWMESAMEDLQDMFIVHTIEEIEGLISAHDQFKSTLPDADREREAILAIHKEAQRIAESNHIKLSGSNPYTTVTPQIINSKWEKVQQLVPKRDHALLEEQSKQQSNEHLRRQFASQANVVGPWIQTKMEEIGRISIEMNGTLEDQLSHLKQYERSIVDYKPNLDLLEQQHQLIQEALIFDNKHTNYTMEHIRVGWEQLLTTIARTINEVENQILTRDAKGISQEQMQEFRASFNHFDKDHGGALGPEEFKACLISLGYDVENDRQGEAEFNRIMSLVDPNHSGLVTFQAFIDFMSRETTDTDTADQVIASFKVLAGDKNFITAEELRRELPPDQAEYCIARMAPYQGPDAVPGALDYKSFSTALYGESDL
UniProt Q9NP81: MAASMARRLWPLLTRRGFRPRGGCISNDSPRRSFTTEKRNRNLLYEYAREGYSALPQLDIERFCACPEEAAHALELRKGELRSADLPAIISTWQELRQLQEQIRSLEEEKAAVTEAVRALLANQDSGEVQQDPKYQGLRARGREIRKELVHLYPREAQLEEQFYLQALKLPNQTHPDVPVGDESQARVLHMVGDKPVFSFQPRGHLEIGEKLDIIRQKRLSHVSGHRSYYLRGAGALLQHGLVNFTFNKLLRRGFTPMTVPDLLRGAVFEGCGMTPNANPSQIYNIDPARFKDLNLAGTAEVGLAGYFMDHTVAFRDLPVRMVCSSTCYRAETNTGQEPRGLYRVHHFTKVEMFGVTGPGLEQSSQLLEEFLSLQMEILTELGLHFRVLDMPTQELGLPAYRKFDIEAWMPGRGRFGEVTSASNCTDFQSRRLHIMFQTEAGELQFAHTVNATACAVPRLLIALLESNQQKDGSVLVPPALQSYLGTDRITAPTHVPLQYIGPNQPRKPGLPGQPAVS
UniProt O43447: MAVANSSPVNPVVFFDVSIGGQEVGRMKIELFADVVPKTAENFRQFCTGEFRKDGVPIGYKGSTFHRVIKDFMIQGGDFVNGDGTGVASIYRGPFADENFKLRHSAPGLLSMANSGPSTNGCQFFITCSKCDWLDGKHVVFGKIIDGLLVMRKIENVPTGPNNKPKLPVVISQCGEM
UniProt O43148, whole entry: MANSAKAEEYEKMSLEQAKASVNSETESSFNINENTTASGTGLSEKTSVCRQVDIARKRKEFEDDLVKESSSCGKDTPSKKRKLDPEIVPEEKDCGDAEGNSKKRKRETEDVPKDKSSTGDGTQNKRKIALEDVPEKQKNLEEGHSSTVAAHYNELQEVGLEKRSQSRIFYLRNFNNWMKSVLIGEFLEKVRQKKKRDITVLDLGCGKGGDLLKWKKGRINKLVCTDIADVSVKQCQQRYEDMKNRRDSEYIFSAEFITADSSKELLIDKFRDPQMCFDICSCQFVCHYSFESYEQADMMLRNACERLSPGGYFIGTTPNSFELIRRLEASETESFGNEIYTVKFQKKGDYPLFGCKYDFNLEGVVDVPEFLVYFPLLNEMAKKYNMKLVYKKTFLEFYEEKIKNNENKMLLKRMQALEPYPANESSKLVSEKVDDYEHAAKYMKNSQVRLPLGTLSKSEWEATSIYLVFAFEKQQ
UniProt O60493, whole entry: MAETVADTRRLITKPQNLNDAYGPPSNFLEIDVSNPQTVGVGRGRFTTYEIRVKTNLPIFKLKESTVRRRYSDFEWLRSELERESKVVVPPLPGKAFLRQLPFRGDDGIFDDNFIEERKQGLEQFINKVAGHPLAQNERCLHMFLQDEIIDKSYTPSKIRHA
UniProt O60287: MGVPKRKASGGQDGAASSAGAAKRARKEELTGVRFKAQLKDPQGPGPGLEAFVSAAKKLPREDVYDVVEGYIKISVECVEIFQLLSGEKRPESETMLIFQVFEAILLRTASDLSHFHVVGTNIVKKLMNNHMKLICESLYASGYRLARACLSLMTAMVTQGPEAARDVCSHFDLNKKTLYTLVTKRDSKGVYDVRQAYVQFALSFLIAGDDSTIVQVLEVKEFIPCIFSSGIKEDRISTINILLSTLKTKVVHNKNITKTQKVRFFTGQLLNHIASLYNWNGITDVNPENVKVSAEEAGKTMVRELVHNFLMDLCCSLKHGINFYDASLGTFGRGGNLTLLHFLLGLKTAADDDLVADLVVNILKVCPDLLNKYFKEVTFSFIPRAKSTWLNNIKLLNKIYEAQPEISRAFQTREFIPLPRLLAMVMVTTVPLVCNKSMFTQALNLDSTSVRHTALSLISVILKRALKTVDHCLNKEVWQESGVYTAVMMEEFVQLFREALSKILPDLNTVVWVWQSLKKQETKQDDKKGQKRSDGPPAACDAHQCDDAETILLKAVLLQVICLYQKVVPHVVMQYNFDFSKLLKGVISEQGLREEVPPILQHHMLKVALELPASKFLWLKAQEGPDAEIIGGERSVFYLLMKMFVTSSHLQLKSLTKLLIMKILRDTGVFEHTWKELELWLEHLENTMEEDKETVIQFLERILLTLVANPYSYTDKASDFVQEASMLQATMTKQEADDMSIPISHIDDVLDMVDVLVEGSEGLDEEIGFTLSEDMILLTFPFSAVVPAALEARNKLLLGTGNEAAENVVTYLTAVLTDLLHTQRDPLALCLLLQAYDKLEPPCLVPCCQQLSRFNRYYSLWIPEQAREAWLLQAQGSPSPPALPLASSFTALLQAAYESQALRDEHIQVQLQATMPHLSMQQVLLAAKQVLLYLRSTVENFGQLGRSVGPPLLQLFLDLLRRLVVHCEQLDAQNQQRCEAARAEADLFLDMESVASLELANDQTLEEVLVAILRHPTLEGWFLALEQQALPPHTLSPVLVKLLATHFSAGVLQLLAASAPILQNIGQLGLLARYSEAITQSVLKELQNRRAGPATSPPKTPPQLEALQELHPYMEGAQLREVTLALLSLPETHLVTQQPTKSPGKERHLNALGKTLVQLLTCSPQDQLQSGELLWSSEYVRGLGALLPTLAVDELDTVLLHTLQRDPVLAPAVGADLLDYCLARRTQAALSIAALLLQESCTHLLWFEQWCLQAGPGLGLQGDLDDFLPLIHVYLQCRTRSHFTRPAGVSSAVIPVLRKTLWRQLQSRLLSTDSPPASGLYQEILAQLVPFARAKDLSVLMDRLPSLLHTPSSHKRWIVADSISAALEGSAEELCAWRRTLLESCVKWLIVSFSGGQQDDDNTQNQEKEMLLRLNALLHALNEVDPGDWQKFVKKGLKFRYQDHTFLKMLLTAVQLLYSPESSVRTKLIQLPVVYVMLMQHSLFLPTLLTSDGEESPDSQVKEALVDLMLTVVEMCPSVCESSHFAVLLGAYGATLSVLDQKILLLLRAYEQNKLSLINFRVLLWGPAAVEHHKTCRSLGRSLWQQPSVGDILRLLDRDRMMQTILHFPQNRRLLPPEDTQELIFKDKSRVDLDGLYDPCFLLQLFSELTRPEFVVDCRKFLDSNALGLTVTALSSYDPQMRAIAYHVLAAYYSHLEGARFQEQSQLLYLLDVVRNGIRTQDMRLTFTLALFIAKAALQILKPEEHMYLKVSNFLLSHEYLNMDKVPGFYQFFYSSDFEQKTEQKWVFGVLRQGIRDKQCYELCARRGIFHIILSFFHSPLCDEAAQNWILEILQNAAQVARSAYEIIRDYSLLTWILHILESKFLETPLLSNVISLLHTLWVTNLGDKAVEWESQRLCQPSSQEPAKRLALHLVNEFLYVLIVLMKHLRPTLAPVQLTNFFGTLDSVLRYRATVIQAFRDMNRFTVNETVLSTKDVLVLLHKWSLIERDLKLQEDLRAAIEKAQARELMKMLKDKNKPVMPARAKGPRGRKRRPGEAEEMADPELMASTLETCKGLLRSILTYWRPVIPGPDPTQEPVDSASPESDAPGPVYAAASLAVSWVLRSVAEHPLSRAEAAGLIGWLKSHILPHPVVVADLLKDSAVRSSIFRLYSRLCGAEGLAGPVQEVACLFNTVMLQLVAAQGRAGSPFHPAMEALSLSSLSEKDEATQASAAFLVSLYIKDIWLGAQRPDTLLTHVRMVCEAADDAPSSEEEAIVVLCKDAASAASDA
UniProt O43252: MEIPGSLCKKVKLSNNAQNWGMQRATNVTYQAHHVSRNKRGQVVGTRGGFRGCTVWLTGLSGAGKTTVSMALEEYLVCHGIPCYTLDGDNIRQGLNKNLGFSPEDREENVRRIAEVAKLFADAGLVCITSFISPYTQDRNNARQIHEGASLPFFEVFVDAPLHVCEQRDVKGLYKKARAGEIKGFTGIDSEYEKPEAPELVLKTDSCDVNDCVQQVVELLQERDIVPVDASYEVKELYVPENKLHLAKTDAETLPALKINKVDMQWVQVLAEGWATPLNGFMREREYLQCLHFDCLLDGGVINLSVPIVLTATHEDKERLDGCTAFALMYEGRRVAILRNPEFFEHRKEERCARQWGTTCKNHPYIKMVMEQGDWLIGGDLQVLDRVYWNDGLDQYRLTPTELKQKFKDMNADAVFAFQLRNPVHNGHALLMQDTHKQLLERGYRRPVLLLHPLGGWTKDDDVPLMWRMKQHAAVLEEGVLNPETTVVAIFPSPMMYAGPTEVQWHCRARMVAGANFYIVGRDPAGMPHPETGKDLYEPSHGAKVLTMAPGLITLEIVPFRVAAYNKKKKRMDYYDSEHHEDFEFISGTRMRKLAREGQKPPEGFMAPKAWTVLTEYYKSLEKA
UniProt O60568: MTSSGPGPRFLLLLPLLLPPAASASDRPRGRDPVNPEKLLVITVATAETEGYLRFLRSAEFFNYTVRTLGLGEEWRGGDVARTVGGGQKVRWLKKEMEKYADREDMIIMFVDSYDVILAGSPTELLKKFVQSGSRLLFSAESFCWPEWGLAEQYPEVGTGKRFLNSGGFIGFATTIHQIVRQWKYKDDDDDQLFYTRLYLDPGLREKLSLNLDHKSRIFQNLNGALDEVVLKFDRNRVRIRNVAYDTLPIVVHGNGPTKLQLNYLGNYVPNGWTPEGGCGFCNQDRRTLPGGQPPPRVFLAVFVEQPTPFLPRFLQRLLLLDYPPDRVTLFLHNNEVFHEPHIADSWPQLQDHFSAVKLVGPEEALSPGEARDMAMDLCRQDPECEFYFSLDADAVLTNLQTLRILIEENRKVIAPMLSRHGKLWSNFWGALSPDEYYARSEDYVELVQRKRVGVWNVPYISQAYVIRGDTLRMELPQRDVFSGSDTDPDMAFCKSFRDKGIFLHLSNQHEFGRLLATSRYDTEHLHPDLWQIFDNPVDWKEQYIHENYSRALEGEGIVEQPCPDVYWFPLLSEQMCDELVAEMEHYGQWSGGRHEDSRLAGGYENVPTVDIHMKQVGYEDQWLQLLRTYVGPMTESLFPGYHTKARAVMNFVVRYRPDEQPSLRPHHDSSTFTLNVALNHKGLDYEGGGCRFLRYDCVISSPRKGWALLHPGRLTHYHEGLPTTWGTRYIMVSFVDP
UniProt O00170: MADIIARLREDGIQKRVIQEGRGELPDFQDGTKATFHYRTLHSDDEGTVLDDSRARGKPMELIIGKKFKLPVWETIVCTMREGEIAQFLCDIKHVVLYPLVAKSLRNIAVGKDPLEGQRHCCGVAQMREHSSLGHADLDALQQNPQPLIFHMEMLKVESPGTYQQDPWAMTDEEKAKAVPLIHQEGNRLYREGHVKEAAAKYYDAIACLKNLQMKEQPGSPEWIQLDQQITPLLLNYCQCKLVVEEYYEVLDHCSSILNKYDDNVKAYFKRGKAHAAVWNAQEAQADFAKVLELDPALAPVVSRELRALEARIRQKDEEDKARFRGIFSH
UniProt O43399: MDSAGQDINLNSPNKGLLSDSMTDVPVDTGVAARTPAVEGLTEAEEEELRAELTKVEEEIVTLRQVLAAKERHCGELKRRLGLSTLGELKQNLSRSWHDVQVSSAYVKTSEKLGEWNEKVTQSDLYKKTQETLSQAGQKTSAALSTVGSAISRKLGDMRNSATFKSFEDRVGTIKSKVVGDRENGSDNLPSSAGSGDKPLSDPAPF
UniProt O60831: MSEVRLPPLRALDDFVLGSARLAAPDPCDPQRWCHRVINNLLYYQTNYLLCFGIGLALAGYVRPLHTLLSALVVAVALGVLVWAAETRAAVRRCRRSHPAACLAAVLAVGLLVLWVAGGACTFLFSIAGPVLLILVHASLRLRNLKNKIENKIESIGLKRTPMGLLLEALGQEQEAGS

Compound: Nc1nc2c(ncn2[C@@H]2O[C@H](COP(=O)(O)OP(=O)(O)OP(=O)(O)O)[C@@H](O)[C@H]2O)c(=O)[nH]1 [guanosine triphosphate]
Assay: NP40-soluble protein abundance relative to vehicle (solubility fold change) (ratio); higher = more soluble protein in presence of GTP
Outline: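 Each value is a fold change relative to the detergent-processed vehicle, calculated per replicate from vsn-normalised intensities. Jurkat crude lysate received eight concentrations (0.1 to 10 mM) for 10 min at room temperature and 3 min at 37 °C, then was solubilised in 0.8% NP40 with benzonase (60 min, 4 °C). The ultracentrifuged supernatant was TMT-labelled and run by LC-MS/MS in three independent experiments.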

Row | Target | NP40-soluble protein abundance (concentration: 0.1mM) | NP40-soluble protein abundance (concentration: 0.5mM) | NP40-soluble protein abundance (concentration: 1mM) | NP40-soluble protein abundance (concentration: 2mM) | NP40-soluble protein abundance (concentration: 4mM) | NP40-soluble protein abundance (concentration: 6mM) | NP40-soluble protein abundance (concentration: 8mM) | NP40-soluble protein abundance (concentration: 10mM)
1 | UniProt O15020 and related entries | 0.991 ± 0.063 | 0.991 ± 0.079 | 1.03 ± 0.076 | 1 ± 0.13 | 1 ± 0.082 | 1.02 ± 0.13 | 1.06 ± 0.043 | 1.06 ± 0.076
2 | NDUFB3 (UniProt O43676) | 0.983 ± 0.023 | 1.03 ± 0.039 | 1.02 ± 0.03 | 0.998 ± 0.09 | 1.01 ± 0.038 | 1.03 ± 0.068 | 1.04 ± 0.12 | 1.04 ± 0.12
3 | UniProt O43159 | 1.22 ± 0.084 | 1.18 ± 0.078 | 1.2 ± 0.13 | 1.2 ± 0.096 | 1.28 ± 0.052 | 1.26 ± 0.03 | 1.33 ± 0.038 | 1.37 ± 0.014
4 | UniProt O43439 and related entries | 1.13 ± 0.016 | 1.03 ± 0.047 | 1.09 ± 0.055 | 1.02 ± 0.055 | 1.11 ± 0.079 | 1.08 ± 0.068 | 1.12 ± 0.097 | 1.12 ± 0.043
5 | UniProt O43504 | 0.878 ± 0.085 | 0.902 ± 0.07 | 1 ± 0.12 | 0.969 ± 0.057 | 1.02 ± 0.16 | 0.906 ± 0.12 | 0.933 ± 0.046 | 0.991 ± 0.12
6 | ACTN4 (UniProt O43707) | 0.926 ± 0.041 | 0.962 ± 0.061 | 0.923 ± 0.076 | 0.875 ± 0.085 | 0.92 ± 0.11 | 1.01 ± 0.13 | 1.03 ± 0.13 | 1.03 ± 0.15
7 | M0QWZ7 and related entries (UniProt Q9NP81) | 1.04 ± 0.024 | 1.02 ± 0.014 | 0.9937 ± 0.0095 | 1.01 ± 0.015 | 1.01 ± 0.013 | 0.991 ± 0.034 | 1.01 ± 0.028 | 0.9723 ± 0.0047
8 | PPIH (UniProt O43447) | 0.955 ± 0.012 | 0.993 ± 0.024 | 0.938 ± 0.014 | 0.943 ± 0.023 | 0.941 ± 0.012 | 0.933 ± 0.04 | 0.926 ± 0.011 | 0.959 ± 0.038
9 | MAN2B1 (UniProt O00754) | 1.05 ± 0.022 | 1.03 ± 0.095 | 0.99 ± 0.066 | 0.959 ± 0.093 | 0.973 ± 0.037 | 0.972 ± 0.051 | 0.918 ± 0.027 | 0.941 ± 0.028
10 | PSMD9 (UniProt O00233) | 0.902 ± 0.066 | 0.916 ± 0.11 | 0.935 ± 0.071 | 0.917 ± 0.1 | 0.903 ± 0.065 | 0.913 ± 0.082 | 0.909 ± 0.069 | 0.93 ± 0.076
11 | UniProt O43747 and related entries | 1.04 ± 0.075 | 1.04 ± 0.086 | 0.965 ± 0.04 | 0.961 ± 0.085 | 0.949 ± 0.089 | 0.923 ± 0.067 | 0.932 ± 0.035 | 0.912 ± 0.082
12 | NPC1 (UniProt O15118) | 0.955 ± 0.061 | 0.94 ± 0.04 | 0.956 ± 0.026 | 0.966 ± 0.041 | 0.946 ± 0.044 | 0.964 ± 0.055 | 0.916 ± 0.064 | 1.01 ± 0.055
13 | UniProt O43148 and related entries | 1.01 ± 0.018 | 1.02 ± 0.04 | 0.987 ± 0.042 | 0.985 ± 0.049 | 0.988 ± 0.051 | 0.977 ± 0.044 | 0.997 ± 0.042 | 0.985 ± 0.019
14 | AKAP8 (UniProt O43823) | 0.978 ± 0.067 | 0.939 ± 0.05 | 1.02 ± 0.055 | 0.974 ± 0.1 | 1.01 ± 0.094 | 0.999 ± 0.065 | 1.06 ± 0.058 | 1.02 ± 0.11
15 | SNX3 (UniProt O60493) | 0.89 ± 0.038 | 0.86 ± 0.022 | 0.98 ± 0.027 | 0.976 ± 0.054 | 0.925 ± 0.054 | 0.943 ± 0.083 | 0.859 ± 0.12 | 0.946 ± 0.081
16 | SCAMP1 (UniProt O15126) | 0.983 ± 0.11 | 0.937 ± 0.1 | 0.981 ± 0.079 | 0.947 ± 0.13 | 0.954 ± 0.15 | 0.919 ± 0.11 | 0.977 ± 0.083 | 0.973 ± 0.1
17 | URB1 (UniProt O60287) | 1.07 ± 0.019 | 1.16 ± 0.061 | 1.21 ± 0.076 | 1.41 ± 0.097 | 1.79 ± 0.072 | 1.95 ± 0.13 | 2.18 ± 0.082 | 2.34 ± 0.033
18 | M0R1D2 and related entries (UniProt O60234) | 0.954 ± 0.063 | 0.917 ± 0.046 | 0.977 ± 0.066 | 0.926 ± 0.083 | 0.917 ± 0.084 | 0.932 ± 0.084 | 0.905 ± 0.082 | 0.89 ± 0.093
19 | UGDH (UniProt O60701) | 0.967 ± 0.063 | 0.994 ± 0.059 | 0.932 ± 0.047 | 0.939 ± 0.036 | 0.929 ± 0.035 | 0.938 ± 0.044 | 0.911 ± 0.055 | 0.936 ± 0.062
20 | PAPSS1 (UniProt O43252) | 1.04 ± 0.034 | 1.04 ± 0.059 | 0.982 ± 0.021 | 0.961 ± 0.046 | 0.963 ± 0.062 | 0.938 ± 0.034 | 0.946 ± 0.038 | 0.899 ± 0.054
21 | PSMD12 (UniProt O00232) | 1.04 ± 0.075 | 1.06 ± 0.11 | 1.01 ± 0.1 | 1.02 ± 0.13 | 1.02 ± 0.11 | 1.03 ± 0.14 | 0.991 ± 0.12 | 0.96 ± 0.13
22 | UniProt O60568 and related entries | 1.11 ± 0.13 | 1.09 ± 0.021 | 0.992 ± 0.034 | 1.01 ± 0.012 | 1.03 ± 0.011 | 1.04 ± 0.032 | 1.01 ± 0.077 | 1.02 ± 0.036
23 | AIP (UniProt O00170) | 0.889 ± 0.056 | 0.885 ± 0.068 | 0.929 ± 0.081 | 0.888 ± 0.075 | 0.877 ± 0.068 | 0.878 ± 0.065 | 0.854 ± 0.083 | 0.87 ± 0.073
24 | UniProt O15111 | 1.03 ± 0.04 | 1.04 ± 0.07 | 0.963 ± 0.052 | 0.964 ± 0.081 | 0.961 ± 0.06 | 0.927 ± 0.061 | 0.891 ± 0.013 | 0.887 ± 0.024
25 | UniProt O00422 and related entries | 1.05 ± 0.085 | 1.16 ± 0.14 | 1.27 ± 0.24 | 1.27 ± 0.16 | 1.2 ± 0.35 | 1.1 ± 0.31 | 1.13 ± 0.36 | 1.16 ± 0.39
26 | UniProt O43399 and related entries | 0.814 ± 0.11 | 0.76 ± 0.039 | 1 ± 0.15 | 0.946 ± 0.028 | 0.91 ± 0.03 | 0.916 ± 0.033 | 0.875 ± 0.16 | 1.08 ± 0.15
27 | PRAF2 (UniProt O60831) | 0.97 ± 0.017 | 0.952 ± 0.055 | 0.87 ± 0.048 | 0.881 ± 0.035 | 0.889 ± 0.047 | 0.864 ± 0.042 | 0.845 ± 0.14 | 0.87 ± 0.093

Taken from the listing (2 entries):
Row | Target | NP40-soluble protein abundance (concentration: 0.1mM) | NP40-soluble protein abundance (concentration: 0.5mM) | NP40-soluble protein abundance (concentration: 1mM) | NP40-soluble protein abundance (concentration: 2mM) | NP40-soluble protein abundance (concentration: 4mM) | NP40-soluble protein abundance (concentration: 6mM) | NP40-soluble protein abundance (concentration: 8mM) | NP40-soluble protein abundance (concentration: 10mM)
3 | UniProt O43159 | 1.22 ± 0.084 | 1.18 ± 0.078 | 1.2 ± 0.13 | 1.2 ± 0.096 | 1.28 ± 0.052 | 1.26 ± 0.03 | 1.33 ± 0.038 | 1.37 ± 0.014
4 | UniProt O43439 and related entries | 1.13 ± 0.016 | 1.03 ± 0.047 | 1.09 ± 0.055 | 1.02 ± 0.055 | 1.11 ± 0.079 | 1.08 ± 0.068 | 1.12 ± 0.097 | 1.12 ± 0.043
